Results published in paper PMC3464206.
These are yes or no findings as the source states them, for the method shown. In cells and extracts the contact can be indirect. Some entries that bind do so weakly or less than the wild type.

Sequences of proteins named here, by UniProt entry; tags and fusion partners are left off.
UniProt P48722: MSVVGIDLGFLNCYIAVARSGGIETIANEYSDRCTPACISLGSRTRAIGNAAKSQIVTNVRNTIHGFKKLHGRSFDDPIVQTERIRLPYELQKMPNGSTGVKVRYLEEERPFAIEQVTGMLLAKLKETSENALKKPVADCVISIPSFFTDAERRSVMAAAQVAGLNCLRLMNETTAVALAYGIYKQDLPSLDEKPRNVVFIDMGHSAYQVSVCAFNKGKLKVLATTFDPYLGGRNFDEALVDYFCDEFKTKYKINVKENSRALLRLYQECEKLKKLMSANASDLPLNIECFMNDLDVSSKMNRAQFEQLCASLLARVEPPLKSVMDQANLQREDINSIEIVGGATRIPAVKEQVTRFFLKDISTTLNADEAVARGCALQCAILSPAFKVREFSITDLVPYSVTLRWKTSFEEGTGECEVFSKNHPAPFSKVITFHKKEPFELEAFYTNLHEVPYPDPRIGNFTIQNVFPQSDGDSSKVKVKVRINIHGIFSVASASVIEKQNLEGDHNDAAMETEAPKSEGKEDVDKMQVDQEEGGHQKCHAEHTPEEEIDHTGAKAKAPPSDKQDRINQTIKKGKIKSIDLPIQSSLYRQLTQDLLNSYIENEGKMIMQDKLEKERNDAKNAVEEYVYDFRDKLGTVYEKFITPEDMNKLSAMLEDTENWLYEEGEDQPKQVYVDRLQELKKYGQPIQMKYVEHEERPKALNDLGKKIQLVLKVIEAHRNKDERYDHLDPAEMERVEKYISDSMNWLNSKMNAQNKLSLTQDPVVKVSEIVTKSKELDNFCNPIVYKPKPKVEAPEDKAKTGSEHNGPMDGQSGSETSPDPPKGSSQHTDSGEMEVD
UniProt P00342: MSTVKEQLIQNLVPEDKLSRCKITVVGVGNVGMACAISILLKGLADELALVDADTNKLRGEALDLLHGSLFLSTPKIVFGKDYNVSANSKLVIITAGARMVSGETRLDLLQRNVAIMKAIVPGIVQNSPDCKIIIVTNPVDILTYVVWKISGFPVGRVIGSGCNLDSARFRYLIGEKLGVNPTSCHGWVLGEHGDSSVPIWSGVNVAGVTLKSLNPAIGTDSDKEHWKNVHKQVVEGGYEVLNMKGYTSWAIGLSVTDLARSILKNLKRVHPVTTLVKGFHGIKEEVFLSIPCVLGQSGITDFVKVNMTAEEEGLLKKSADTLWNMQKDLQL

Target: T1, recombinant RABL2 (isoform 2), conjugated to agarose (mouse) (UniProt E9Q9D5)
T1 sequence: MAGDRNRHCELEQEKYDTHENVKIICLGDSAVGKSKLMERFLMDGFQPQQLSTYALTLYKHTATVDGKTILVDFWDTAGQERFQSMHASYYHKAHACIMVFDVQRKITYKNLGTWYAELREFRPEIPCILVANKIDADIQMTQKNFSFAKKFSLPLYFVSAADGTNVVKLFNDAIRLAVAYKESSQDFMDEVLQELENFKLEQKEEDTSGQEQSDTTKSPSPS
Assay: pull-down; additional GTP-RABL2 and GDP-RABL2 affinity column eluates from adult mouse testis extracts, Western blotting for candidate effector proteins; only the target purified

| binding | Substance |
| --- | --- |
| binds | HSPA4L (from UniProt P48722 1-838) |
| binds | LDHC (from UniProt P00342 1-332) |
